Data on one molecule can be found in article PMC5687922.

These are yes or no findings as the source states them, for the method shown. In cells and extracts the contact can be indirect. Some results given as binding are weak or reduced against the parent protein; the word gives no strength. Tags and fused reporters may be left off the sequences shown.

The assay deals with Candida albicans Snf6, TAP-tagged (Snf6-TAP) (Candida albicans). Description: co-IP; lysates of Snf6-TAP and double-tagged C. albicans strains (mid-log, YPD) in IP150 buffer (50 mM Tris-HCl pH 7.4, 150 mM NaCl, 2 mM MgCl2, 0.1% Nonidet P-40); 1 mg total protein with IgG Sepharose, anti-Myc (9E10) or anti-HA (12CA5), 4°C overnight; Western blot with anti-TAP, anti-Myc or anti-HA. Background: Immunoblotting shows a protein as a band on a membrane.

B1: Swi1, epitope-tagged (double-tagged strain with Snf6-TAP) (protein, UniProt Q59UR3 1-987)
chain: MSDWLNENAFADSNSNDDFLNSIFDQSQGEQQAPQVAQVSTSMSNPPLQSQSASSTSRISQAHTPMYQQSPVTAHTIPQNSPQSMPNQVAQPQQQIPPPPSQHLQQTTAQMLPQQQQQQQQQQQQQQKQEQLYRMKQQIYQQQMLKKQQENMSRQPSPMNSAGHNTQQNTPITQNAKTPQNNSKLQSMQMELFFSVLYDFLQRSGISIPQSLAINGKRVNLFILYILSQRLGGYRVMKAFLLMSPEQQRMQQQNPWALMADKMGFHDKGEDPMAKERIARELCNCYSNFILPYEEYYATPEGNKDIEASKHRFQQQIVQKYSSNVPTPAPNQQSPMISSAPTPHQQRKLSRTSNSVNNSPNVSSPFHNTPRQVPAPAPAPVQTAASMPPPTPVTAKSQTTKADAHILKNYTPFKKIVETHGPFNIKELSQLSTEIEVTKPVYLFAPELGIINLQALTMSVKSNSGIQSSEVVNALNTLLVATSDVNYAFQIKDIMELLDALSSLGKDVLNKIVGVNTEEDCVNADVTKLSANGRIDDIFNRYVKGQGEDISYVVNSLTGEVVSDDEDIEELFSVCDDGNSESPIDKSTDSLDVLEFHLDDYLTALKNFKSENKHHFSKLQTRSATDDQILLVDELITITMILRNISFAEYNKEPMAGNRLFKDLLFSTVKSVALNNDKFVFSRKRLCLLKDCLLMLDNISLFTHLHTLEEAFLSFVLVASFGPKIEDQYKIPRCNIETHSYFAFGLDAFTKLMVREPYNRSLIQAVLNGTLNSSMTGYSVSLQDQEYTRKLIKAYNKDYKSASLLSQAFQMYMSILPFDANTFELSKFIFMRSPTISQMLFGAKLLIDMVPVDDLNTHHNKLSLYWLLENRELLLGNFARIVVALSTETGKFPRESPEHKVLSSVLRKALVVINSLVDNAVLAKEIGDSRHTDLMESLTDCLAFPRIIPDAILTLDTFLAPTIDTNLGKEVVRLLRYLKDLKACEGI
In the case of B1, the binding entry is “binds”.
